# Laboratory results as given in patent publication US20220265775A1, “COMPOSITIONS AND METHODS FOR TREATING PULMONARY EDEMA OR LUNG INFLAMMATION” (priority 2019, published 2022).
# At least one compound was matched to its structure with a doubt left.
# Test system: RLE-6TN cells
# Experiment: RLE-6TN cell survival under hyperoxia and recovery, viable cells counted by trypan blue exclusion
# Type: cell-based, rat
# Conditions: 72 hours in hyperoxia, 10^-6 M T3 and 100 nM wortmannin
# Description: FIG. 7. […] The cells were cultured in DMEM/F12 with 10% FBS in 21% O2 and 5% CO2 overnight. […] The viable cells are counted immediately after 72-hour hyperoxia exposure. Cell viability is assessed with trypan blue. The amount of viable cells under specific conditions is presented as a percentage of the cell number from hyperoxia alone. Data are mean±s.d. of four independent experiments with *=P<0.05; **=P<0.01.
# FIG. 8. […] In both (A) and (B), the number of viable cells under specific conditions is presented as a percentage of the cell number related to hyperoxia alone in the same experiment. Data are mean s.d. of four independent experiments with *=P<0.05; **=P<0.01.
# FIG. 10. HO-1 upregulation is required for T3-increased RLE-6TN cell survival in hyperoxia. […] The cells were then collected for Western Blot analysis. (B) The cells were incubated in 21% O2 and 5% CO2 for 72 hours in the present of HO-1 inhibitor Tin Protoporphyrin IX (10^−6M). […] Cell viability is assessed with trypan blue. The number of viable cells under specific conditions is presented as a percentage of the cell number related to hyperoxia alone. Data are mean±s.d. of three independent experiments with *=P<0.05; **=P<0.01.
# FIG. 11. […] Cell viability is assessed with trypan blue. […]
# At the end of the hyperoxia exposure period, the viable cells were counted by trypan blue dye exclusion.
smiles,measurement,value
"COC[C@H]1OC(=O)c2coc3c2[C@@]1(C)C1=C(C3=O)[C@@H]2CCC(=O)[C@@]2(C)C[C@H]1OC(C)=O [Wortmannin, wortmannin]",cell death during hyperoxia,death of almost all the cells
same,effect on T3-induced cell survival during hyperoxia,blocked the T3-induced cell survival during hyperoxia
